According to patent US20030176339A1:
Results are given in words; binding and its absence hold for the method and conditions named. Binding seen in cells or lysates may run through a third protein. Some binding calls cover weakened binding; strength is not graded here. Tags and fused reporters may be left off the sequences shown.

The chains behind the UniProt entries cited, without tags or fusion partners. Residues count along the entry.
UniProt P02647, residues 25-267: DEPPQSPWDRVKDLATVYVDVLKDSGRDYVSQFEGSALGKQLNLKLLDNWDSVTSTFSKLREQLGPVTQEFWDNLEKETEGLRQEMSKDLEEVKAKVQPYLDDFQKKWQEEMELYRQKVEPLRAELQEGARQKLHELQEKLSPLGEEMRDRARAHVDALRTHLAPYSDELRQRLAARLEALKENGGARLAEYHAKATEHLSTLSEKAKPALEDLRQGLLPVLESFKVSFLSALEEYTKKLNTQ

Molecular target: human apolipoprotein A-I (Sigma), cross-linked to CNBr-activated Sepharose resin (human) (UniProt P02647)
Assay: pull-down of COS7 supernatant on apo A-I Sepharose, EDTA elution, anti-Myc Western blot

B1: partial fragment III of human cubilin (positions 1165-2091; fragment peptide CUB7-CUB14), Myc and His tagged, COS7 culture supernatant (receptor, not shown: small tags and cut ends)
chain: CGGNLTTSSGTFISPNYPMPYYHSSECYWWLKSSHGSAFELEFKDFHLEHHPNCTLDYLAVYDGPSSNSHLLTQLCGDEKPPLIRSSGDSMFIKLRTDEGQQGRGFKAEYRQTCENVVIVNQTYGILESIGYPNPYSENQHCNWTIRATTGNTVNYTFLAFDLEHHINCSTDYLELYDGPRQMGRYCGVDLPPPGSTTSSKLQVLLLTDGVGRREKGFQMQWFVYGCGGELSGATGSFSSPGFPNRYPPNKECIWYIRTDPGSSIQLTIHDFDVEYHSRCNFDVLEIYGGPDFHSPRIAQLCTQRSPENPMQVSSTGNELAIRFKTDLSINGRGFNASWQAVTGGCGGIFQAPSGEIHSPNYPSPYRSNTDCSWVIRVDRNHRVLLNFTDFDLESQDSCIMAYDGLSSTMSRLARTCGREQLANPIVSSGNSLFLRFQSGPSRQNRGFRAQFRQACGGHILTSSFDTVSSPRFPANYPNNQNCSWIIQAQPPLNHITLSFTHFELERSTTCARDFVEILDGGHEDAPLRGRYCGTDMPHPITSFSSALTLRFVSDSSISAGGFHTTVTASVSACGGTFYMAEGIFNSPGYPDIYPPNVECVWNIVSSPGNRLQLSFISFQLEDSQDCSRDFVEIREGNATGHLVGRYCGNSFPLNYSSIVGHTLWVRFISDGSGSGTGFQATFMKIFGNDNIVGTHGKVASPFWPENYPHNSNYQWTVNVNASHVVHGRILEMDIEEIQNCYYDKLRIYDGPSIHARLIGAYCGTQTESFSSTGNSLTFHFYSDSSISGKGFLLEWFAVDAPDGVLPTIAPGACGGFLRTGDAPVFLFSPGWPDSYSNRVDCTWLIQAPDSTVELNILSLDIESHRTCAYDSLVIRDGDNNLAQQLAVLCGREIPGPIRSTGEYMFIRFTSDSSVTRAGFNASFHKS
- binding: binds

B2: CUB9-CUB14 fragment peptide of human cubilin (positions 1391-2091), Myc and His tagged, COS7 culture supernatant (receptor, not shown: small tags and cut ends)
chain: CGGELSGATGSFSSPGFPNRYPPNKECIWYIRTDPGSSIQLTIHDFDVEYHSRCNFDVLEIYGGPDFHSPRIAQLCTQRSPENPMQVSSTGNELAIRFKTDLSINGRGFNASWQAVTGGCGGIFQAPSGEIHSPNYPSPYRSNTDCSWVIRVDRNHRVLLNFTDFDLESQDSCIMAYDGLSSTMSRLARTCGREQLANPIVSSGNSLFLRFQSGPSRQNRGFRAQFRQACGGHILTSSFDTVSSPRFPANYPNNQNCSWIIQAQPPLNHITLSFTHFELERSTTCARDFVEILDGGHEDAPLRGRYCGTDMPHPITSFSSALTLRFVSDSSISAGGFHTTVTASVSACGGTFYMAEGIFNSPGYPDIYPPNVECVWNIVSSPGNRLQLSFISFQLEDSQDCSRDFVEIREGNATGHLVGRYCGNSFPLNYSSIVGHTLWVRFISDGSGSGTGFQATFMKIFGNDNIVGTHGKVASPFWPENYPHNSNYQWTVNVNASHVVHGRILEMDIEEIQNCYYDKLRIYDGPSIHARLIGAYCGTQTESFSSTGNSLTFHFYSDSSISGKGFLLEWFAVDAPDGVLPTIAPGACGGFLRTGDAPVFLFSPGWPDSYSNRVDCTWLIQAPDSTVELNILSLDIESHRTCAYDSLVIRDGDNNLAQQLAVLCGREIPGPIRSTGEYMFIRFTSDSSVTRAGFNASFHKS
- binding: binds
